Data: US20130078247A1
No constants are given. Whether binding was seen depends on the method and setting.

Tests used:
hDLL4.1 = assay: SPR Biacore; VHH on CM4 chip, deletion mutant injected
mDLL4.8 = assay: as above
[1] = molecular target: mouse DLL4 deletion mutant mDII4.8 (lacking the EGF-like 2 domain) (mouse); assay: Biacore, VHH coated, deletion mutant injected
[2] = molecular target: human DLL4 deletion mutant hDII4.1 (lacking the EGF-like 2 domain) (human); assay: Biacore, VHH coated, deletion mutant injected

Measured: binding

B1: DLLBII56A09 (VHH, not shown: small tags and cut ends)
VHH: EVQLVESGGGLVQPGGSLRLSCAASGFTFDDYAIGWFRQAPGKEPEGISCISSSGGITYYADSVKGRFTTSRDNAKNTVYLQMNSLKPEDTAVYYCATPGIAACRGIHYTGQGTQVTVSS
no binding (tested: 200 nM): all assays above

B2: DLLBII101G08 (VHH, not shown: small tags and cut ends)
VHH: EVQLVESGGGLVQAGGSLRLSCAASGRTFSSYAMAWFRQAPGKEREFVAAIRWSGGTAYYADSVQGRFTISRDNAKNTVYLQMNSLKPEDTAVYYCANRAADTRLGPYEYDYWGQGTQVTVSS
no binding (tested: 200 nM): all assays above

B3: DLLBII115A05 (VHH, not shown: small tags and cut ends)
VHH: EVQLVESGGGLVQPGGSLRLSCAASGFTFGSYDMSWVRRSPGKGPEWVSSINSGGGSTYYADFVKGRFTISRDNAKNTLYLQMNSLKPEDTAVYYCAADRYIRARQGDYWGAYEYDYWGQGTQVTVSS
no binding (tested: 200 nM): all assays above
